In patent US4489062A, “Pharmaceutical compounds, preparation, use and intermediates therefor and their preparation” (priority 1982, dated 1984):

What was measured:
female CD1 mice = assay: Irritant-induced writhing test, acetic acid; assay type: in vivo; details: Mus musculus, sc, 0.5 h; compound administered 30 mins. prior to acetic acid
Description: (1) Both the hotplate test (Woolfe and MacDonald, J. Pharmacol. Exp. Ther. 80:300, 1944) and the irritant-induced writhing (stretch) test (Vander Wende and Margolin, Fed. Proc. 15:494, 1956) are standard in the art for the investigation of analgesic activity. Whereas it is believed that the pain in the latter can be ameliorated either centrally or peripherally, it is thought that that induced in the hotplate test is affected only at the central level.
(i) Acetic Acid. Groups of five female CD1 mice (Charles River) received either a test compound or saline vehicle (0.85%) control by subcutaneous injection 15 mins. (unless otherwise indicated) prior to an intraperitoneal injection of 0.6% acetic acid at a dose volume of 25 ml/kg. After a further 20 mins. the writhing or stretching movements induced by the irritant were counted over a 21/2 min. period, a writhe/stretch being identified as an extension of a hindlimb accompanied by constriction of the abdomen.
The ED50 figures for the test compounds were calculated, using linear regression analysis, as the dose in the presence of which only half the number of writhes/stretches was induced compared with the controls.

male TFW mice = assay: Antagonism by quaternary opioid (N-methylnalorphine) in acetic acid writhing test; assay type: in vivo; details: ratio of equiactive doses in presence and absence of N-methylnalorphine; calculated from the linear regression of the dose/response curves
Description: (3) The analgesia induced by the peptides in the writhing test upon peripheral (parenteral) administration is antagonised by parenteral administration of the quaternary opioid antagonist N-allyl-normorphine methiodide (N-methylnalorphine; Koczka et al, Acta Chim. Acad. Sci. Hung. 51:393, 1967), i.e. a higher dose of the peptide is required in the presence than in the absence of the opioid for the same effect. As penetration of the blood-brain barrier by the quaternary compound is minimal (c.f. Tavani et al, European J. Pharmacol. 59:151-154, 1979) both the peptide-induced analgesia and the antagonism thereof are effected at the peripheral level.
Groups of six male TFW mice (Tuck) received by intraperitoneal injection either N-methylnalorphine (16 mg/kg) or saline vehicle (0.85%) control at a volume of 10 ml/kg followed after 20 mins. by a solution of the test compound in saline (10 ml/kg, subcutaneous) and after a further 30 mins. by 0.6% acetic acid (25 ml/kg, intraperitoneal). The total number of writhes/stretches per group was then determined over the 5 min. period commencing 15 mins. after administration of the acetic acid. […]

## CN1CC[C@]23c4c5ccc(O)c4O[C@H]2[C@@H](O)C=C[C@H]3[C@H]1C5 [Morphine, reference compound]
Female CD1 mice
  ED50: 0.45 mg/kg
Male TFW mice
  Dose ratio (a):(b): 0.9
